Experimental data published in PubChem BioAssay AID540303 (National Center for Advancing Translational Sciences (NCATS), 2011).
Screen size: about 330,000 compounds; about 1,000 (0.3%) were called active. The shares of active, inactive and inconclusive entries below differ from those in the screen. The call rests on the fitted dose curve; in most records, active means well fitted inhibition curve with a large enough effect; inconclusive means small, poorly fitted or top-dose-only effect; inactive means no such curve, though single readings can be large or run the other way; tested in mouse RAW 264.7 cells. Potencies of inconclusive entries are doubtful fits and often do not repeat.

Experiment: qHTS for Inhibitors of Cell Surface uPA Generation; further: nearly all actives have a fitted effect of over 55% in size
Details: cell surface uPA generation assay; series mostly up to 38.3 µM
Procedure, shortened: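 Validation set in qHTS format. RAW 264.7 cells were pre-plated overnight and then exposed to compounds (up to 38.3 uM final) for 24 h at 37 C in 5% CO2, followed by a luminescent ATP-Lite measurement.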
Potency means the concentration at half of the fitted maximal effect.

SMILES | Potency
CNc1oc(-c2ccco2)nc1C#N | inactive
CCOC(=O)c1c(C)[nH]c(C)c1C(=O)COC(=O)/C=C/c1ccc(OC)cc1 | active: 2.51 µM
O=C(Nc1nnc(-c2cccnc2)s1)c1cccs1 | inconclusive: 1 µM [inhibitor, partial curve, poor fit]
CC(C)C(C(=O)OCC(=O)c1ccccc1)N1C(=O)C2C3C=CC(C3)C2C1=O (stereo not drawn) | inconclusive: 3.16 µM [inhibitor, partial curve, poor fit]
COc1cccc(NC(=O)c2c(C)nn(-c3ccccc3)c2Cl)c1 | inconclusive: 6.31 µM [inhibitor, partial curve, poor fit]
COc1ccc(N=C2O/C(=C/c3sc(=S)n(CC4CCCO4)c3O)N=C2C#N)cc1 (stereo not drawn) | inactive
CN1CCN(NC(=O)c2cccc(F)c2)CC1 | inactive
OCCOc1ccc(CN2CCCC(N3CCN(c4ccc(F)cc4)CC3)C2)cc1 (stereo not drawn) | inconclusive: 0.891 µM [inhibitor, partial curve, poor fit]
O=C(NCC1CC1)c1ccc2c3n(nc2c1)-c1ccc(Cl)cc1CO3 | inconclusive: 10 µM [inhibitor, single point]
Cc1ccc2nc(-c3cccc(N)c3)oc2c1 | inconclusive: 7.94 µM [inhibitor, partial curve]
COc1ccc(C(=O)OCC(=O)NCc2ccc3c(c2)OCO3)cc1S(=O)(=O)N1CCOCC1 | inactive
Cc1c(C(=O)NCc2ccco2)sc2nc(-c3ccccc3)cn12 | inconclusive: 7.08 µM [inhibitor, single point]
COc1ccc(/C=C/C(=O)Nc2ccccc2C(=O)O)cc1OC | inconclusive: 7.08 µM [inhibitor, single point]
O=C1[C@@H]2Cc3c([nH]c4ccccc34)C(c3ccc([N+](=O)[O-])cc3)N2C(=O)CN1C1CC1 (stereo partly drawn) | inconclusive: 1.12 µM [inhibitor, partial curve, poor fit]
CCCCCCn1c(O)c(/C=C2\C=NN=C2c2ccccc2)sc1=S | inactive
CN1CCN(c2nc3ccccc3nc2C(C#N)S(=O)(=O)c2ccccc2)CC1 (stereo not drawn) | inconclusive: 4.47 µM [inhibitor, partial curve, poor fit]
O=Cc1ccccc1OCCOc1ccccc1C=O | inconclusive: 11.2 µM [inhibitor, partial curve, poor fit]
CC(=O)/C(C#N)=C1\NC(=O)C(Cc2cc(Cl)ccc2Cl)S1 (stereo not drawn) | inconclusive: 3.16 µM [inhibitor, partial curve, poor fit]
CCN(c1ccccc1)S(=O)(=O)c1ccc(Cl)c(NC(=O)CN2CCN(C)CC2)c1 | inactive
Cc1nnc(SC(C)C(=O)NC2CCCCC2)[nH]c1=O (stereo not drawn) | inactive
Nc1c(C(=O)CSc2nc(-c3ccccc3)cs2)c(=O)[nH]c(=O)n1C1CC1 | inconclusive: 3.16 µM [inhibitor, partial curve, poor fit]
N=C(N)c1ccc(OCCCCCOc2ccc(C(=N)N)cc2)cc1 | inconclusive: 10 µM [inhibitor, partial curve, poor fit]
COC(=O)C1=C(C(=O)OC)[C@@H]2N(Cc3ccccc3)c3ccccc3[C@@]23C[C@@H](C(=O)OC)N(C(=O)c2cc(C)oc2C)C3=N1 | inconclusive: 7.94 µM [inhibitor, single point]

SMILES | Potency
Nc1nc(NC(=O)c2cccnc2)nn1-c1ccccc1 | inactive
CCCCCCCNC(=O)C1(CC2CC(c3cccc(Br)c3)=NO2)CCN(C(=O)CCCCCBr)CC1 (stereo not drawn) | inconclusive: 12.6 µM [inhibitor, partial curve, poor fit]
CCCCN(C)C(=O)c1oc2ccc(S(=O)(=O)N3CCCCCC3)cc2c1C | inconclusive: 12.6 µM [inhibitor, partial curve, poor fit]
COc1ccc(CC(=O)NCC2CCCCC2)cc1OC | inactive
Cc1noc(C)c1COc1cccc(C(=O)Nc2ccc3c(c2)OCO3)c1 | inconclusive: 7.08 µM [inhibitor, single point]
Cc1cccc(NC(=O)CCc2nc3sc4c(c3c(=O)[nH]2)CCCC4)n1 | inconclusive: 0.0126 µM [inhibitor, full curve, poor fit]
CCNc1nc(CSc2ccccc2)nc2sc(C)c(C)c12 | inactive
CC(=O)N1CCN(S(=O)(=O)c2cccc(C(=O)OCc3ccc(C(C)(C)C)cc3)c2)CC1 | inconclusive: 10 µM [inhibitor, single point]
Cc1cc(C)c2c(N)c(C(=O)NN3CC(=O)N(c4cccc(Cl)c4)CC3=O)sc2n1 | inactive
CCOc1cc(/C=N\Nc2ncc(F)c(N3CCOCC3)n2)ccc1Oc1nc(Cl)ncc1F | inconclusive: 3.16 µM [inhibitor, partial curve, poor fit]
COc1ccc(NC(=O)COC(=O)CCSc2ccccc2)cc1 | inconclusive: 12.6 µM [inhibitor, single point]
N#Cc1c(Nc2ccc(F)cc2)sc(C(=O)c2ccccc2)c1N | inconclusive: 8.91 µM [inhibitor, partial curve, poor fit]
CC(C)NC(=O)Nc1cccc2c1O[C@@H](CN(C)S(=O)(=O)c1ccc(F)cc1)[C@@H](C)CN([C@H](C)CO)C2=O | inconclusive: 7.94 µM [inhibitor, single point]
CCN(C(=O)CSc1nc(C)nc2sc(C)c(C)c12)C1CCS(=O)(=O)C1 (stereo not drawn) | inconclusive: 2.82 µM [inhibitor, partial curve, poor fit]
CCC(=O)N1CCCc2cc(S(=O)(=O)N3CCN(c4ccccc4F)CC3)ccc21 | inconclusive: 10 µM [inhibitor, partial curve, poor fit]
CC(=O)c1cnc2cc(C)nn2c1C | inactive
C/C(=N\NC(=O)c1ccccc1Cl)c1ccccn1 | inconclusive: 1.12 µM [inhibitor, full curve, poor fit]
Cc1ccc(N/C=C/C(=O)c2ccco2)c(O)c1 | inconclusive: 11.2 µM [inhibitor, single point]
N=c1c(S(=O)(=O)c2ccccc2)cc2c(=O)n3ccccc3nc2n1CCCN1CCOCC1 | inactive
CCn1c(CC(=O)Nc2ccccc2OC)nnc1SCC(=O)Nc1ccccc1F | inactive
COc1ccc(CN2CCN(CCc3ccccc3)C(CCO)C2)c(Cl)c1OC (stereo not drawn) | inconclusive: 31.6 µM [inhibitor, single point]
COc1ccc(CCNC(=O)CN(C2CCCCC2)S(C)(=O)=O)cc1OC | inactive
COc1ccc([N+](=O)[O-])cc1NC(=O)CCN1CCN(C)CC1 | inactive

A draw from above in order of number of heavy atoms, ascending:
SMILES | Potency
Nc1nc(NC(=O)c2cccnc2)nn1-c1ccccc1 | inactive
COc1ccc(CCNC(=O)CN(C2CCCCC2)S(C)(=O)=O)cc1OC | inactive
CCOc1cc(/C=N\Nc2ncc(F)c(N3CCOCC3)n2)ccc1Oc1nc(Cl)ncc1F | inconclusive: 3.16 µM [inhibitor, partial curve, poor fit]

Additional structures

SMILES | Potency
CNc1ncc(-c2nnnn2-c2ccccc2)c(-c2ccccc2)n1 | inconclusive: 7.08 µM [inhibitor, single point]
COc1ccc(-c2nc3ccc(C)cn3c2NCc2ccccc2)cc1SC1CCCCC1 | active: 3.16 µM
CCOC(=O)C1CCCN(S(=O)(=O)c2ccc3c(c2)N(C(C)=O)CCO3)C1 (stereo not drawn) | inconclusive: 8.91 µM [inhibitor, single point]
Cc1ccc(-c2cc(C(=O)Nc3c(C#N)cnn3C)no2)cc1 | inconclusive: 1.26 µM [inhibitor, full curve]
N#CC(C#N)=C1C=CC=CN1/C(=C\c1ccco1)C(=O)c1ccc(Br)cc1 | inactive
COC(=O)C1=C(C)N(Cc2ccccc2)C(=NCCc2c[nH]c3ccccc23)N[C@H]1c1ccccc1 | inconclusive: 11.2 µM [inhibitor, partial curve, poor fit]
CCC(C)Nc1nc(C)nc2c1oc1ccccc12 (stereo not drawn) | inconclusive: 8.91 µM [inhibitor, single point]
CCn1c(-c2ccc3ncccc3c2)n[nH]c1=S | inactive
CCCCNC(=O)C1c2ccccc2Oc2ccccc21 | inconclusive: 3.16 µM [inhibitor, partial curve]
CCOC(=O)c1cn(-c2c(Cl)cccc2Cl)c2cc(Cl)c([N+](=O)[O-])cc2c1=O | active: 8.91 µM
Cc1cccc(CCN2C(N(C)C)=NC[C@@H]2CC(C)C)c1 | inconclusive: 4.47 µM [inhibitor, partial curve]
CC1CCCN(C(=O)c2ccc(OC3CCN(CCc4ccccc4)CC3)cc2)C1 (stereo not drawn) | inconclusive: 12.6 µM [inhibitor, single point]
CCOC(=O)C1(Cc2ccccc2C)CCCN(C(=O)c2cc(CC)nn2C)C1 (stereo not drawn) | inactive
Cc1ccc(S(=O)(=O)N2CCC(=O)N(C(COCc3cccc(C)c3)Cc3ccccc3)CC2)cc1 (stereo not drawn) | inconclusive: 12.6 µM [inhibitor, partial curve, poor fit]
COc1ccccc1C(CNC(=O)c1ccc(C)c(S(=O)(=O)N2CCCCC2)c1)N1CCCC1 (stereo not drawn) | inactive
CCCCNC(=O)c1ccccc1C(=O)NCCCC | inactive
COc1ccc(C(CC(=O)N2CCCC(C)C2)c2c(OC)cc(OC)c3c(-c4ccccc4)cc(=O)oc23)cc1 (stereo not drawn) | inconclusive: 10 µM [inhibitor, single point]
CCCCNC(=S)N(CCCN(C)C)Cc1cc2cc3c(cc2[nH]c1=O)OCO3 | inconclusive: 10 µM [inhibitor, partial curve, poor fit]
CC(=O)N1CCCc2cc(S(=O)(=O)N3CCCC(C(=O)Nc4cccc(F)c4)C3)ccc21 (stereo not drawn) | inactive
Cn1ccc(NC(=O)Nc2ccc(Cl)cc2Cl)n1 | inactive
Cc1ccn2cc(-c3ccc(O)c(O)c3)nc2c1 | inconclusive: 2.82 µM [inhibitor, partial curve, poor fit]
Clc1cccc(Cl)c1-c1nnc2ccc(N3CCOCC3)nn12 | inconclusive: 0.0035 µM [inhibitor, partial curve, poor fit]
